Measurements: patent US9457089B2, “Highly concentrated aqueous protein solution with reduced viscosity” (ADOCIA, priority 2012, dated 2016)
Some of these results come from one statement about several compounds together.

Tested on: infliximab
Experiment: Viscosity reduction of highly concentrated infliximab solution (cone/plate rheometer)
Assay type: physicochemical
Details: infliximab 150 mg/ml, 150 mM, versus NaCl at the same concentration
Text: For this example, three solutions of monoclonal antibodies, i.e. a solution of bevacizumab (an IgG1 sold under the name Avastin® by Genentech/Hoffmann La Roche), a solution of infliximab (an IgG1/κ sold under the name Remicade® by Schering-Plough) and a solution of trastuzumab (an IgG1/κ sold under the name Herceptin® by Genentech), were concentrated by ultrafiltration on Amicon® Ultra-15 centrifuge filtration units with a cutoff threshold of 50 kDa. The protein concentration of each concentrated solution was measured by UV spectroscopy (absorbance at 280 nm) after dilution of the samples.
The commercial solution of bevacizumab (25 mg/ml) was concentrated to 268 mg/ml. […] Once reconstituted, the infliximab and trastuzumab formulations were concentrated to, respectively, 183 mg/ml and 243 mg/ml.
The effect of uridine compared with that of arginine and of NaCl on the viscosity of these three highly concentrated therapeutic protein solutions was then evaluated. For this, the viscosity was measured using a cone/plate rheometer (TA Instruments, AR 2000 Ex, geometry or diameter 20 mm, cone of 0.5131°, solvent trap filled with water) at a temperature of 21° C. and in flow sweep mode with shear rates of between 5000 and 50 s^−1 (3 points per decade-steady-state sensing). All the viscosity values are determined at the level of the Newtonian plateau.
The samples thus prepared were stored at ambient temperature and were analyzed using a rheometer within 24 hours of their preparation. […]
The viscosity of the “Protein+Cyt”, “Protein+Deoxycyt” and “Protein+Urid” formulations was then measured as described in example 2 and compared with that obtained for the “Protein+Arg”, “Protein+NaCl” and “Protein+ATP” formulations. […]
The pH of these formulations is the same as that of the commercial infliximab formulation, i.e. 7.2±0.2. The viscosity of the formulations thus prepared was measured as described in example 2. […]

## Nc1ccn([C@H]2C[C@H](O)[C@@H](CO)O2)c(=O)n1 [Deoxycyt, 2′-Deoxycytidine]
  effectiveness in viscosity reduction relative to NaCl: more than 10 times

## Nc1ccn([C@@H]2O[C@H](CO)[C@@H](O)[C@H]2O)c(=O)n1 [Cyt, Cytidine]
  effectiveness in viscosity reduction relative to NaCl: more than 10 times

## O=c1ccn([C@@H]2O[C@H](CO)[C@@H](O)[C@H]2O)c(=O)[nH]1 [Urid, Uridine]
  effectiveness in viscosity reduction relative to NaCl: more than 10 times
